According to patent US20250283871A1, “COMPOSITIONS AND METHODS FOR MODULATING THE INTERACTION BETWEEN SS18-SSX FUSION ONCOPROTEIN AND NUCLEOSOMES” (Dana-Farber Cancer Institute, Inc., priority 2020, published 2025):

B1: FOXRED1 (protein, UniProt Q96CU9 1-486, looked up)
FAD-dependent oxidoreductase …: MIRRVLPHGMGRGLLTRRPGTRRGGFSLDWDGKVSEIKKKIKSILPGRSCDLLQDTSHLPPEHSDVVIVGGGVLGLSVAYWLKKLESRRGAIRVLVVERDHTYSQASTGLSVGGICQQFSLPENIQLSLFSASFLRNINEYLAVVDAPPLDLRFNPSGYLLLASEKDAAAMESNVKVQRQEGAKVSLMSPDQLRNKFPWINTEGVALASYGMEDEGWFDPWCLLQGLRRKVQSLGVLFCQGEVTRFVSSSQRMLTTDDKAVVLKRIHEVHVKMDRSLEYQPVECAIVINAAGAWSAQIAALAGVGEGPPGTLQGTKLPVEPRKRYVYVWHCPQGPGLETPLVADTSGAYFRREGLGSNYLGGRSPTEQEEPDPANLEVDHDFFQDKVWPHLALRVPAFETLKVQSAWAGYYDYNTFDQNGVVGPHPLVVNMYFATGFSGHGLQQAPGIGRAVAEMVLKGRFQTIDLSPFLFTRFYLGEKIQENNII
B2: FKBP8 (protein, UniProt Q14318 1-412, looked up)
Peptidyl-prolyl cis-trans …: MASCAEPSEPSAPLPAGVPPLEDFEVLDGVEDAEGEEEEEEEEEEEDDLSELPPLEDMGQPPAEEAEQPGALAREFLAAMEPEPAPAPAPEEWLDILGNGLLRKKTLVPGPPGSSRPVKGQVVTVHLQTSLENGTRVQEEPELVFTLGDCDVIQALDLSVPLMDVGETAMVTADSKYCYGPQGRSPYIPPHAALCLEVTLKTAVDGPDLEMLTGQERVALANRKRECGNAHYQRADFVLAANSYDLAIKAITSSAKVDMTFEEEAQLLQLKVKCLNNLAASQLKLDHYRAALRSCSLVLEHQPDNIKALFRKGKVLAQQGEYSEAIPILRAALKLEPSNKTIHAELSKLVKKHAAQRSTETALYRKMLGNPSRLPAKCPGKGAWSIPWKWLFGATAVALGGVALSVVIAARN
B3: MIGA1 (protein, UniProt Q8NAN2 1-632, looked up)
Mitoguardin 1: MSDCCSAPGISWEAGVGRPAVPGLELQIRRGAMSEETVSESQFSLKTAALRVFDLPLTWYYSLSQIKFSPVAKKLFVVTAVSAISVIFLAHHFKRKRGKKKGKILPWEPEHLILEYTKRAASDKGSSCSSSRQNLTLSLSSTKDKGSQVCNYANGGLFSKYSGSAQSLASVQSVNSCHSCACGNSNSWDKADEDDIKLVNIPVTTPENLYLMGMELFEEALRRWEQALTFRNRQAEDEACGSIKLGAGDAIAEENVDDIISTEFIHKLEALLQRAYRLQEEFEATLGASDPNSLADDIDKDTDITMKGNVEDFGLRDTLSIASTDSFASAAELAEHREVRHTYSLESLCHCPFYEEAMHLVEEGKIYSRVLRTEMLECLGDSDFLAKLHCIRQAFQVILSESANRIFLAESGRKILSALIVKARKNPKKFEDVFDEMIYFLEQTDHWGSTEMELAARGVKNLNFYDVVLDFILMDSFEDLENPPTSIQNVVNNRWLNSSFKETAVASSCWSVLKQKRQQMKIPDGFFAHFYAICEHISPVLAWGFLGPRNSLYDLCCFFKNQVLLFLKDIFDFEKVRYSSTETLAEDLMQLLIRRTELLMAYLEADALRHTSSCLSSHGHVMSTGLLEAKVQ
B4: PMPCB (protein, UniProt O75439 44-489, looked up)
Mitochondrial-processing …: STQAATQVVLNVPETRVTCLESGLRVASEDSGLSTCTVGLWIDAGSRYENEKNNGTAHFLEHMAFKGTKKRSQLDLELEIENMGAHLNAYTSREQTVYYAKAFSKDLPRAVEILADIIQNSTLGEAEIERERGVILREMQEVETNLQEVVFDYLHATAYQNTALGRTILGPTENIKSISRKDLVDYITTHYKGPRIVLAAAGGVSHDELLDLAKFHFGDSLCTHKGEIPALPPCKFTGSEIRVRDDKMPLAHLAIAVEAVGWAHPDTICLMVANTLIGNWDRSFGGGMNLSSKLAQLTCHGNLCHSFQSFNTSYTDTGLWGLYMVCESSTVADMLHVVQKEWMRLCTSVTESEVARARNLLKTNMLLQLDGSTPICEDIGRQMLCYNRRIPIPELEARIDAVNAETIREVCTKYIYNRSPAIAAVGPIKQLPDFKQIRSNMCWLRD
B5: PFKL (protein, UniProt P17858 2-780, looked up)
ATP-dependent …: AAVDLEKLRASGAGKAIGVLTSGGDAQGMNAAVRAVTRMGIYVGAKVFLIYEGYEGLVEGGENIKQANWLSVSNIIQLGGTIIGSARCKAFTTREGRRAAAYNLVQHGITNLCVIGGDGSLTGANIFRSEWGSLLEELVAEGKISETTARTYSHLNIAGLVGSIDNDFCGTDMTIGTDSALHRIMEVIDAITTTAQSHQRTFVLEVMGRHCGYLALVSALASGADWLFIPEAPPEDGWENFMCERLGETRSRGSRLNIIIIAEGAIDRNGKPISSSYVKDLVVQRLGFDTRVTVLGHVQRGGTPSAFDRILSSKMGMEAVMALLEATPDTPACVVTLSGNQSVRLPLMECVQMTKEVQKAMDDKRFDEATQLRGGSFENNWNIYKLLAHQKPPKEKSNFSLAILNVGAPAAGMNAAVRSAVRTGISHGHTVYVVHDGFEGLAKGQVQEVGWHDVAGWLGRGGSMLGTKRTLPKGQLESIVENIRIYGIHALLVVGGFEAYEGVLQLVEARGRYEELCIVMCVIPATISNNVPGTDFSLGSDTAVNAAMESCDRIKQSASGTKRRVFIVETMGGYCGYLATVTGIAVGADAAYVFEDPFNIHDLKVNVEHMTEKMKTDIQRGLVLRNEKCHDYYTTEFLYNLYSSEGKGVFDCRTNVLGHLQQGGAPTPFDRNYGTKLGVKAMLWLSEKLREVYRKGRVFANAPDSACVIGLKKKAVAFSPVTELKKDTDFEHRMPREQWWLSLRLMLKMLAQYRISMAAYVSGELEHVTRRTLSMDKGF
B6: DNAJC16 (protein, UniProt Q9Y2G8 26-782, looked up)
DnaJ homolog subfamily C …: LDFDPYRVLGVSRTASQADIKKAYKKLAREWHPDKNKDPGAEDKFIQISKAYEILSNEEKRSNYDQYGDAGENQGYQKQQQQREYRFRHFHENFYFDESFFHFPFNSERRDSIDEKYLLHFSHYVNEVVPDSFKKPYLIKITSDWCFSCIHIEPVWKEVIQELEELGVGIGVVHAGYERRLAHHLGAHSTPSILGIINGKISFFHNAVVRENLRQFVESLLPGNLVEKVTNKNYVRFLSGWQQENKPHVLLFDQTPIVPLLYKLTAFAYKDYLSFGYVYVGLRGTEEMTRRYNINIYAPTLLVFKEHINRPADVIQARGMKKQIIDDFITRNKYLLAARLTSQKLFHELCPVKRSHRQRKYCVVLLTAETTKLSKPFEAFLSFALANTQDTVRFVHVYSNRQQEFADTLLPDSEAFQGKSAVSILERRNTAGRVVYKTLEDPWIGSESDKFILLGYLDQLRKDPALLSSEAVLPDLTDELAPVFLLRWFYSASDYISDCWDSIFHNNWREMMPLLSLIFSALFILFGTVIVQAFSDSNDERESSPPEKEEAQEKTGKTEPSFTKENSSKIPKKGFVEVTELTDVTYTSNLVRLRPGHMNVVLILSNSTKTSLLQKFALEVYTFTGSSCLHFSFLSLDKHREWLEYLLEFAQDAAPIPNQYDKHFMERDYTGYVLALNGHKKYFCLFKPQKTVEEEEAIGSCSDVDSSLYLGESRGKPSCGLGSRPIKGKLSKLSLWMERLLEGSLQRFYIPSWPELD
B7: GTPBP10 (protein, UniProt A4D1E9 1-387, looked up)
GTP-binding protein 10: MVHCSCVLFRKYGNFIDKLRLFTRGGSGGMGYPRLGGEGGKGGDVWVVAQNRMTLKQLKDRYPRKRFVAGVGANSKISALKGSKGKDCEIPVPVGISVTDENGKIIGELNKENDRILVAQGGLGGKLLTNFLPLKGQKRIIHLDLKLIADVGLVGFPNAGKSSLLSCVSHAKPAIADYAFTTLKPELGKIMYSDFKQISVADLPGLIEGAHMNKGMGHKFLKHIERTRQLLFVVDISGFQLSSHTQYRTAFETIILLTKELELYKEELQTKPALLAVNKMDLPDAQDKFHELMSQLQNPKDFLHLFEKNMIPERTVEFQHIIPISAVTGEGIEELKNCIRKSLDEQANQENDALHKKQLLNLWISDTMSSTEPPSKHAVTTSKMDII
B8: ERGIC2 (protein, UniProt Q96RQ1 1-377, looked up)
Endoplasmic reticulum-Golgi …: MRRLNRKKTLSLVKELDAFPKVPESYVETSASGGTVSLIAFTTMALLTIMEFSVYQDTWMKYEYEVDKDFSSKLRINIDITVAMKCQYVGADVLDLAETMVASADGLVYEPTVFDLSPQQKEWQRMLQLIQSRLQEEHSLQDVIFKSAFKSTSTALPPREDDSSQSPNACRIHGHLYVNKVAGNFHITVGKAIPHPRGHAHLAALVNHESYNFSHRIDHLSFGELVPAIINPLDGTEKIAIDHNQMFQYFITVVPTKLHTYKISADTHQFSVTERERIINHAAGSHGVSGIFMKYDLSSLMVTVTEEHMPFWQFFVRLCGIVGGIFSTTGMLHGIGKFIVEIICCRFRLGSYKPVNSVPFEDGHTDNHLPLLENNTH
B9: MOCS1 (protein, UniProt Q9NZB8 1-636, looked up)
Molybdenum cofactor …: MAARPLSRMLRRLLRSSARSCSSGAPVTQPCPGESARAASEEVSRRRQFLREHAAPFSAFLTDSFGRQHSYLRISLTEKCNLRCQYCMPEEGVPLTPKANLLTTEEILTLARLFVKEGIDKIRLTGGEPLIRPDVVDIVAQLQRLEGLRTIGVTTNGINLARLLPQLQKAGLSAINISLDTLVPAKFEFIVRRKGFHKVMEGIHKAIELGYNPVKVNCVVMRGLNEDELLDFAALTEGLPLDVRFIEYMPFDGNKWNFKKMVSYKEMLDTVRQQWPELEKVPEEESSTAKAFKIPGFQGQISFITSMSEHFCGTCNRLRITADGNLKVCLFGNSEVSLRDHLRAGASEQELLRIIGAAVGRKKRQHAGMFSISQMKNRPMILIELFLMFPNSPPANPSIFSWDPLHVQGLRPRMSFSSQVATLWKGCRVPQTPPLAQQRLGSGSFQRHYTSRADSDANSKCLSPGSWASAAPSGPQLTSEQLTHVDSEGRAAMVDVGRKPDTERVAVASAVVLLGPVAFKLVQQNQLKKGDALVVAQLAGVQAAKVTSQLIPLCHHVALSHIQVQLELDSTRHAVKIQASCRARGPTGVEMEALTSAAVAALTLYDMCKAVSRDIVLEEIKLISKTGGQRGDFHRA

System: BAF complex subunits and histone proteins
Experiment: Mass spectrometry proteomics of purified HA-SS18 WT and HA-SS18-SSX1 complexes (Tables 5A-5E)
Design: species or system human
Conditions: HA-SS18WT_NE_peptides: proteins co-purified with HA-SS18 WT from nuclear extract (NE), HEK-293T

Total (peptides), 1:
B1
B2
B3
B4
B5
B6
B7
B8
B9

Unique (peptides), 1:
B1
B2
B3
B4
B5
B6
B7
B8
B9
